Measurements reported in PubChem BioAssay AID1508588 (Peter MacCallum Cancer Centre, 2020)
Aim: 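Knock-downs boosting vemurafenib effects on melanoma cell growth or lactate release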 (primary screen). System: human WM266.4 melanoma cells (BRAF V600 mutant). Reagent: siRNA pool against human genes, 40 nM. Time to read-out: 96 h from transfection to read-out. Challenge: vemurafenib 300 nM (about IC25), added 48 h after transfection, for 48 h; comparison arm got DMSO vehicle only. Detection: 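Ratios to non-targeting siRNA for cell gain, counted as DAPI nuclei after minus before drug and averaged over two replicates, and for absorbance-read medium lactate per cell; both binned into fold-change classes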. Direction: cell gain with vemurafenib: higher = more cell gain than with non-targeting siRNA; lactate per cell with vemurafenib: higher = more lactate made per cell. Active means: 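Enhancement is called by pairing each knock-down's vehicle-arm and drug-arm fold-change classes for viability or glycolysis; which class combinations qualify is not given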. Meaning of the calls: active = enhances vemurafenib effect; inactive = no enhancement seen.
Shown is one part, drawn at random, of about 18,000 reagents. 790 of them (4.4%) count as active. 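Calls rest on a combination of fold-change classes in drug and vehicle arms, not all shown here.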

Silencing of PYGB (GeneID 5834) came out at: cell gain with vemurafenib 1; lactate per cell with vemurafenib 1.31; inactive.
Knock-down of SELENBP1 (GeneID 8991) resulted in: cell gain with vemurafenib 1.05; lactate per cell with vemurafenib 0.19; active.
Silencing of TXNDC12 (GeneID 51060) gave: cell gain with vemurafenib -0.09; lactate per cell with vemurafenib 3.77; inactive.
ACER1 (GeneID 125981) showed cell gain with vemurafenib -0.11; lactate per cell with vemurafenib 3.24; inactive.
With knock-down of LOXL2 (GeneID 4017), the record shows cell gain with vemurafenib 0.27; lactate per cell with vemurafenib 0.69; inactive.
With knock-down of MAGEB2 (GeneID 4113), the screen gave cell gain with vemurafenib 0.72; lactate per cell with vemurafenib 1.12; inactive.
Knock-down of PDK3 (GeneID 5165) gave: cell gain with vemurafenib 0.53; lactate per cell with vemurafenib 0.16; active.

Active calls, of those listed so far:
SELENBP1 (GeneID 8991) | cell gain with vemurafenib = 1.05; lactate per cell with vemurafenib = 0.19; Call = active
PDK3 (GeneID 5165) | cell gain with vemurafenib = 0.53; lactate per cell with vemurafenib = 0.16; Call = active

Continued.
Knock-down of WWP2 (GeneID 11060) resulted in: cell gain with vemurafenib 0.61; lactate per cell with vemurafenib 0.6; inactive.
ADGRD1 (GeneID 283383) gave cell gain with vemurafenib 0.5; lactate per cell with vemurafenib 1.72; inactive.
After knock-down of CYP1A2 (GeneID 1544), the record shows cell gain with vemurafenib 0.96; lactate per cell with vemurafenib 1.21; inactive.
Against NSMAF (GeneID 8439) the deposit lists cell gain with vemurafenib 0.66; lactate per cell with vemurafenib 1.28; inactive.
Depletion of CDH1 (GeneID 999) came out at: cell gain with vemurafenib 0.85; lactate per cell with vemurafenib 0.79; inactive.
Silencing of MEAK7 (GeneID 57707) came out at: cell gain with vemurafenib 0.6; lactate per cell with vemurafenib 1.09; inactive.
With knock-down of PLOD3 (GeneID 8985) the results were cell gain with vemurafenib -0.09; lactate per cell with vemurafenib 2.93; inactive.
After knock-down of TOX (GeneID 9760), the record shows cell gain with vemurafenib 0.22; lactate per cell with vemurafenib 2.12; inactive.
With knock-down of PTGES (GeneID 9536), the screen gave cell gain with vemurafenib 0.88; lactate per cell with vemurafenib 1.15; inactive.
